Assays:
Format in all cases: cell-based, Murine
Details in all cases: ratio of TC50 to IC50
INF-β transcripts = test: Inhibition of LPS induction of INF-β transcripts in macrophages (rt-PCR)
Procedure: (§1) Murine macrophages were treated with LPS in the presence of various exemplary compounds described above. Subsequently, the cells were harvested and the transcripts for IL-6, iNOS, and INF-β quantified via rt-PCR. IC50 is the concentration of the compounds required to inhibit 50% of the mRNA transcripts induced by LPS. TC50 is the concentration of the compounds required to diminish the MTS signal by 50% (MTS signal correlates with cell metabolism/viability). Therapeutic Index (TI) is the ratio of TC50 to IC50.
(§2) In TABLE 4, data are provided that show effects of exemplary compounds described above on the inhibition of LPS induction of IL-6, iNOS, and INF-β transcripts in macrophages. The IL-6, iNOS, and INF-β transcripts are key mediators in a plethora of signaling networks that are involved in normal physiology and pathological processes. The mechanism by which LPS induces the IL-6, iNOS, and INF-β transcripts is via a network of signaling events. […] Data in TABLE 4 that was not calculatable is noted “NC.”

IL-6 transcripts = test: Inhibition of LPS induction of IL-6 transcripts in macrophages (rt-PCR)
Procedure: as §1, §2

iNOS transcripts = test: Inhibition of LPS induction of iNOS transcripts in macrophages (rt-PCR)
Procedure: as §1, §2

SMILES: Cn1c(-c2cccc(Cl)c2)c[nH]c1=S [COB-119]
- Average Therapeutic Index (TI) INF-β (INF-β transcripts): 8.5
- Average Therapeutic Index (TI) IL-6 (IL-6 transcripts): 8.7
- Average Therapeutic Index (TI) iNOS (iNOS transcripts): 6.5

SMILES: CCn1c(-c2cccc(Cl)c2)c[nH]c1=O [COB-125]
- Average Therapeutic Index (TI) INF-β (INF-β transcripts): 13.9
- Average Therapeutic Index (TI) IL-6 (IL-6 transcripts): 16.1
- Average Therapeutic Index (TI) iNOS (iNOS transcripts): 11.6

SMILES: COc1ccc(OC)c(-c2c[nH]c(=S)n2C)c1 [COB-132]
- Average Therapeutic Index (TI) INF-β (INF-β transcripts): 4.2
- Average Therapeutic Index (TI) IL-6 (IL-6 transcripts): 13.8
- Average Therapeutic Index (TI) iNOS (iNOS transcripts): 9.5

SMILES: COc1ccc(OC)c(C2(O)CSC(=S)N2Cc2ccccc2)c1 (stereo not shown) [COB-143]
- Average Therapeutic Index (TI) INF-β (INF-β transcripts): 23.0
- Average Therapeutic Index (TI) IL-6 (IL-6 transcripts): 1.8
- Average Therapeutic Index (TI) iNOS (iNOS transcripts): 7.7

SMILES: OC1(c2ccccc2)CSC(=S)N1Cc1cccnc1 (stereo not shown) [COB-152]
- Average Therapeutic Index (TI) INF-β (INF-β transcripts): 115.4
- Average Therapeutic Index (TI) IL-6 (IL-6 transcripts): 4.2
- Average Therapeutic Index (TI) iNOS (iNOS transcripts): 115.4

SMILES: OC1(c2ccccc2)CSC(=S)N1CCCc1ccccc1 (stereo not shown) [COB-168]
- Average Therapeutic Index (TI) INF-β (INF-β transcripts): 8.0
- Average Therapeutic Index (TI) IL-6 (IL-6 transcripts): 0.7
- Average Therapeutic Index (TI) iNOS (iNOS transcripts): 8.0

SMILES: OC1(c2ccccc2)CSC(=S)N1Cc1nc2ccccc2[nH]1 (stereo not shown) [COB-183]
- Average Therapeutic Index (TI) INF-β (INF-β transcripts): >6.3
- Average Therapeutic Index (TI) IL-6 (IL-6 transcripts): >2.6
- Average Therapeutic Index (TI) iNOS (iNOS transcripts): >5.3

SMILES: OC1(c2ccccc2)CSC(=S)N1Cc1ccncc1 (stereo not shown) [COB-187]
- Average Therapeutic Index (TI) INF-β (INF-β transcripts): 120.0
- Average Therapeutic Index (TI) iNOS (iNOS transcripts): 40.0

SMILES: OC1(c2ccccc2)CSC(=S)N1Cc1ccc2[nH]ccc2c1 (stereo not shown) [COB-188]
- Average Therapeutic Index (TI) INF-β (INF-β transcripts): 52.0
- Average Therapeutic Index (TI) iNOS (iNOS transcripts): 52.0

SMILES: Oc1cccc(C2(O)CSC(=S)N2Cc2ccccc2)c1 (stereo not shown) [COB-196]
- Average Therapeutic Index (TI) INF-β (INF-β transcripts): 45.3
- Average Therapeutic Index (TI) iNOS (iNOS transcripts): 34.0

SMILES: Oc1cccc(C2(O)CSC(=S)N2Cc2cccnc2)c1 (stereo not shown) [COB-198]
- Average Therapeutic Index (TI) INF-β (INF-β transcripts): 85.0
- Average Therapeutic Index (TI) iNOS (iNOS transcripts): 113.3

SMILES: COc1ccc(C2(O)CSC(=S)N2Cc2cccnc2)c(OC)c1 (stereo not shown) [COB-199]
- Average Therapeutic Index (TI) INF-β (INF-β transcripts): >4.5
- Average Therapeutic Index (TI) iNOS (iNOS transcripts): 10.5

SMILES: Oc1ccc(C2(O)CSC(=S)N2Cc2cccnc2)c(O)c1 (stereo not shown) [COB-200]
- Average Therapeutic Index (TI) INF-β (INF-β transcripts): 27.5
- Average Therapeutic Index (TI) iNOS (iNOS transcripts): 22.0

SMILES: COc1ccc(C2(O)CSC(=S)N2Cc2cccnc2)cc1 (stereo not shown) [COB-201]
- Average Therapeutic Index (TI) INF-β (INF-β transcripts): 8.0
- Average Therapeutic Index (TI) iNOS (iNOS transcripts): 22.2

SMILES: O=c1oc2ccccc2cc1C1(O)CSC(=S)N1Cc1cccnc1 (stereo not shown) [COB-202]
- Average Therapeutic Index (TI) INF-β (INF-β transcripts): 9.8
- Average Therapeutic Index (TI) iNOS (iNOS transcripts): 19.5

SMILES: COc1ccc(OC)c(-c2csc(=S)n2Cc2cccnc2)c1 [COB-203]
- Average Therapeutic Index (TI) INF-β (INF-β transcripts): 33.8
- Average Therapeutic Index (TI) IL-6 (IL-6 transcripts): 13.8

SMILES: COc1ccc(-c2csc(=S)n2Cc2cccnc2)c(OC)c1 [COB-204]
- Average Therapeutic Index (TI) INF-β (INF-β transcripts): 9.3
- Average Therapeutic Index (TI) IL-6 (IL-6 transcripts): 26.0
- Average Therapeutic Index (TI) iNOS (iNOS transcripts): 18.6

SMILES: COc1ccc(-c2csc(=S)n2Cc2cccnc2)cc1 [COB-206]
- Average Therapeutic Index (TI) INF-β (INF-β transcripts): 4.0
- Average Therapeutic Index (TI) IL-6 (IL-6 transcripts): 11.4
- Average Therapeutic Index (TI) iNOS (iNOS transcripts): 2.2

SMILES: CCCN1C(=S)SCC1(O)c1ccc(Cl)c(Cl)c1 (stereo not shown) [COB-210]
- Average Therapeutic Index (TI) INF-β (INF-β transcripts): 15.0
- Average Therapeutic Index (TI) IL-6 (IL-6 transcripts): 2.8
- Average Therapeutic Index (TI) iNOS (iNOS transcripts): 22.5

SMILES: CCCCCCN1C(=S)SCC1(O)c1ccccc1 (stereo not shown) [COB-212]
- Average Therapeutic Index (TI) INF-β (INF-β transcripts): 15.0
- Average Therapeutic Index (TI) iNOS (iNOS transcripts): 15.9

SMILES: CCCn1c(-c2cccnc2)csc1=S [COB-214]
- Average Therapeutic Index (TI) IL-6 (IL-6 transcripts): 38.0
- Average Therapeutic Index (TI) iNOS (iNOS transcripts): 22.0

SMILES: CCCn1c(-c2cccc([N+](=O)[O-])c2)csc1=S [COB-215]
- Average Therapeutic Index (TI) INF-β (INF-β transcripts): ~10
- Average Therapeutic Index (TI) IL-6 (IL-6 transcripts): ~11.5
- Average Therapeutic Index (TI) iNOS (iNOS transcripts): ~10

SMILES: CCCn1c(-c2cc(OC)ccc2OC)csc1=S [COB-220]
- Average Therapeutic Index (TI) INF-β (INF-β transcripts): 4.9
- Average Therapeutic Index (TI) IL-6 (IL-6 transcripts): 10.9
- Average Therapeutic Index (TI) iNOS (iNOS transcripts): 16.0

SMILES: Oc1ccc(Cl)cc1C1(O)CSC(=S)N1Cc1ccccc1 (stereo not shown) [COB-221]
- Average Therapeutic Index (TI) INF-β (INF-β transcripts): 12.0
- Average Therapeutic Index (TI) IL-6 (IL-6 transcripts): >1.8
- Average Therapeutic Index (TI) iNOS (iNOS transcripts): 10.0

SMILES: Oc1ccc(Cl)cc1C1(O)CSC(=S)N1Cc1cccnc1 (stereo not shown) [COB-222]
- Average Therapeutic Index (TI) INF-β (INF-β transcripts): 33.3
- Average Therapeutic Index (TI) IL-6 (IL-6 transcripts): 1.7
- Average Therapeutic Index (TI) iNOS (iNOS transcripts): 33.3

SMILES: Cc1ccc(C)c(C2(O)CSC(=S)N2Cc2cccnc2)c1 (stereo not shown) [COB-223]
- Average Therapeutic Index (TI) INF-β (INF-β transcripts): 35.0
- Average Therapeutic Index (TI) IL-6 (IL-6 transcripts): 4.0
- Average Therapeutic Index (TI) iNOS (iNOS transcripts): 35.0

SMILES: Cc1ccccc1C1(O)CSC(=S)N1Cc1cccnc1 (stereo not shown) [COB-224]
- Average Therapeutic Index (TI) INF-β (INF-β transcripts): 28.9
- Average Therapeutic Index (TI) IL-6 (IL-6 transcripts): 3.7
- Average Therapeutic Index (TI) iNOS (iNOS transcripts): 32.5

SMILES: COc1ccc(F)cc1C1(O)CSC(=S)N1Cc1cccnc1 (stereo not shown) [COB-225]
- Average Therapeutic Index (TI) INF-β (INF-β transcripts): 65.0
- Average Therapeutic Index (TI) IL-6 (IL-6 transcripts): 2.0
- Average Therapeutic Index (TI) iNOS (iNOS transcripts): 65.0

SMILES: OC1(c2cc(C(F)(F)F)ccc2Cl)CSC(=S)N1Cc1cccnc1 (stereo not shown) [COB-226]
- Average Therapeutic Index (TI) INF-β (INF-β transcripts): 22.0
- Average Therapeutic Index (TI) IL-6 (IL-6 transcripts): 2.6
- Average Therapeutic Index (TI) iNOS (iNOS transcripts): 22.0

SMILES: CCCn1c(-c2ccc(C#N)cc2)csc1=S [COR-216]
- Average Therapeutic Index (TI) INF-β (INF-β transcripts): ~10
- Average Therapeutic Index (TI) IL-6 (IL-6 transcripts): ~12
- Average Therapeutic Index (TI) iNOS (iNOS transcripts): ~10
